Protein sequences, listed by entry. Tags and fused reporters are not part of them. Lines headed by an entry give the natural chain unless they say otherwise; changes in a name come on top.
UniProt P24232: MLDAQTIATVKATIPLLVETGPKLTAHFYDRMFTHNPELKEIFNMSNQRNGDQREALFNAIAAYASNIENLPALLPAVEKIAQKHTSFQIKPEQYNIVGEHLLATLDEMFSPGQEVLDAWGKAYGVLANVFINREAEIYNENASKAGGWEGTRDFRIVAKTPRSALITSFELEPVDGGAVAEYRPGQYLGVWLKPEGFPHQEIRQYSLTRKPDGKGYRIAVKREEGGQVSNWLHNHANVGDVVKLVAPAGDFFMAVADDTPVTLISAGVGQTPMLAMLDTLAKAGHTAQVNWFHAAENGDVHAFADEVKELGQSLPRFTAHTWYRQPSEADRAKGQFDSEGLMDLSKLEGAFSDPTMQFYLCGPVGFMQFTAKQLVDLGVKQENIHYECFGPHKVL

In article PMC11206828, “Catalytic Differences between Flavohemoglobins of Giardia intestinalis and E. coli” (Pathogens, 2024):

Assays:
[1] = target: E. coli flavohemoglobin (Hmp) (Escherichia coli, UniProt P24232); experiment: Nitric oxide dioxygenase (NOD) inhibition assay, Hmp; type: biochemical; conditions: Nitric oxide dioxygenase inhibition constant Ki, pH 6.5, 37 °C, 100 μM NADH, 1 μM NO, imidazole: Ki of the inhibitor-sensitive phase of a biphasic fit
Protocol: The inhibitor was included in the assay solution before the addition of PROLI-NONOate. Inhibitors were also preincubated in the enzyme stock solutions at the same concentration. […] All inhibition experiments were done using the same enzyme preparations. Each assay at a particular concentration of inhibitor was measured in triplicate or more. […] To determine inhibition constants Ki, rate data obtained at different inhibitor concentrations were fit to the equation for non-competitive inhibition nonlinear regression (Equation (1)) using Graphpad Prism software. (1) v=Vmax/(Km,NO+[NO])1+[I]/Ki

YHb flavohemoglobin = conditions: read-out: Inhibition constant for YHb flavohemoglobin; cited from earlier work

For `Clc1ccc(COC(Cn2ccnc2)c2ccc(Cl)cc2Cl)c(Cl)c1` (centres unmarked) [Miconazole, miconazole], the Ki [1] is listed as 0.27 ± 0.07 µM and the Ki (YHb flavohemoglobin) is listed as ~12 µM.
